Assay results published in US9382330B2, “Pdia4, target of cytopiloyne derivatives, for tumor diagnosis and treatment” (ACADEMIA SINICA, priority 2010, dated 2016).
Some of these results come from one statement about several compounds together. At least one structure is not confirmed: it was looked up by name or label, or the drawing left a doubt.

Test system: Jurkat cells
Test: Cell growth and death by counting living and dead cells with eosin Y
Assay type: cell-based
Details: 6 days
Method: FIGS. 1A-C Effect of cytopiloyne (CP) and cytopiloyne aglycone (CPA) on cell growth, death and proliferation. FIG. 1A-B are graphs showing effects of CP and CPA on growth and death of Jurkat cells. Jurkat cells were grown in RPMI medium in the presence of DMSO (−), CP and CPA at the indicated concentrations for 6 days. Numbers of living cells (FIG. 1A) and dead cells (FIG. 1B) were counted by using eosin Y and hematocytometer. Growth (%) is defined as 100% multiplied by the ratio of the living cell number with compound treatment to that with the control treatment. Death (%) is defined as 100% multiplied by the ratio of the dead cell number to a total of cells (both living and dead). FIG. 1C is a graph showing effect of CP and CPA on proliferation of Jurkat cells. Jurkat cells, which were already labeled with AFSE, were grown under the same condition as the Jurkat cells shown in FIGS. 1A-B. Mean fluorescent intensity (MFI) of the cells on days 0, 2, 4 and 6 were determined using FACS.
Jurkat cells were infected with different lentiviral particles 2 days prior to use. […] One aliquot was tested for cell growth for 6 days and the number of live and dead cells was calculated using eosin Y. Another aliquot was stained with AFSE, monitored for cell proliferation for 6 days and followed byFACS analysis. […] Tumor incidence, tumor size and survival rate of the tumor-bearing mice were scored.

Structure (SMILES)	cell death of Jurkat cells (CP at 20 μg/ml or beyond)	cell death of Jurkat cells (CPA at 2.5 μg/ml or beyond)
CC#CC#CC#CC#CCCC(CO)O[C@@H]1O[C@H](CO)[C@@H](O)[C@H](O)[C@H]1O (some centres unmarked) [CP, cytopiloyne]	≥ 10%	–
CC#CC#CC#CC#CCCC(O)CO (centres unmarked) [CPA, cytopiloyne aglycone]	–	≥ 10%
